These are yes or no findings as the source states them, for the method shown. Binding seen in cells or lysates may run through a third protein. Some binding calls cover weakened binding; strength is not graded here. Where a sequence is shown, tags or fusion partners need not be part of it.
Target: T1, HA-tagged FRA1DD, constitutively active phosphomimetic FRA1 (Fos-like antigen 1) mutant (UniProt P15407)
T1 sequence: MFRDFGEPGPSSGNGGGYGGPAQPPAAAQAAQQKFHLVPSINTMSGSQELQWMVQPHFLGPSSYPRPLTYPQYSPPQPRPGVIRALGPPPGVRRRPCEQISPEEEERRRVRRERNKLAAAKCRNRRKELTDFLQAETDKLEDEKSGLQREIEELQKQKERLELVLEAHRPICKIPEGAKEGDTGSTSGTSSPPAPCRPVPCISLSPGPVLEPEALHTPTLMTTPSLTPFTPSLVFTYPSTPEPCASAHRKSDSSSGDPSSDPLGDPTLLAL
Test: co-IP; lysates of FaDu cells expressing HA-tagged FRA1DD; IP with an antibody against HA, immunoblotting for c-Jun and FRA1

Amino acid sequences for entries named in this document (tags omitted).
UniProt P05412: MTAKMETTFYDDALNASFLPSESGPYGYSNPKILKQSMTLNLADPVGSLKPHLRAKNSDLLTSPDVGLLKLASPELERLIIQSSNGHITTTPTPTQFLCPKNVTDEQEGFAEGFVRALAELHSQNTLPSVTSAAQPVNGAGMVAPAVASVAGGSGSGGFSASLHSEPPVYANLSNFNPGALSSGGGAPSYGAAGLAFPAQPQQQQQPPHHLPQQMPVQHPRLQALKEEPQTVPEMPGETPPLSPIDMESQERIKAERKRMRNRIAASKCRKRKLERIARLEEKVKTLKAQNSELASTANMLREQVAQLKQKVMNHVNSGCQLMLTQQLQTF

c-Jun (from UniProt P05412 1-331)
binding: binds
